Laboratory results published in ChEMBL document CHEMBL5674883, “The Heterochromatin Landscape in Migrating Cells and the Importance of H3K27me3 for Associated Transcriptome Alterations” (Cells, 2018).
This continues a long series; more values of the same kind are listed elsewhere.

Amino acid sequences for entries named in this document (tags omitted).
UniProt Q61188, whole entry: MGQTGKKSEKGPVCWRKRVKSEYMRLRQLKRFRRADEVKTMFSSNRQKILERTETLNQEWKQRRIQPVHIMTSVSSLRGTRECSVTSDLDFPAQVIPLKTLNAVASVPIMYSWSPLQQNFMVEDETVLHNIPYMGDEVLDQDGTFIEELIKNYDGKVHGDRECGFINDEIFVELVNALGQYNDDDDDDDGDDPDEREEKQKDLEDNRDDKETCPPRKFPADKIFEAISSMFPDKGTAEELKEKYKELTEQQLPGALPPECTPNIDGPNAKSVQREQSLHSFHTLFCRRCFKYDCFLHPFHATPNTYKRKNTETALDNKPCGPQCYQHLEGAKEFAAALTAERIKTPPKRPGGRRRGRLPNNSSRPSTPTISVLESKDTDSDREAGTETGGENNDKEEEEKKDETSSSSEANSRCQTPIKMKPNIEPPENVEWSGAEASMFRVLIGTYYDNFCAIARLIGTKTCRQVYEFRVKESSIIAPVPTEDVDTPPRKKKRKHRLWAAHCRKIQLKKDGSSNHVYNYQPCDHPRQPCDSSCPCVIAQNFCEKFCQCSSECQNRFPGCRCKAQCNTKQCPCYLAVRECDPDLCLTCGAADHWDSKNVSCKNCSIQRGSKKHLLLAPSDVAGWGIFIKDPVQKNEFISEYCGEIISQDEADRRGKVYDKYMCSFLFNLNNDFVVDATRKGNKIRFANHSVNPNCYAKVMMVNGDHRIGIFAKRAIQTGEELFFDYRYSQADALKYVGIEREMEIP

Experiments:
Format in all cases: cell-based
[1] = target: T1, RNA polymerase II (Mus musculus) (UniProt P08775+Q8CFI7+P97760+A0A3Q4L2S8+Q80UW8+P61219+P62488+Q923G2+P60898+O08740+Q63871+P62876); assay: Inhibition of RNA polymerase II in mouse B16-F1 migrating cells assessed as fold change in Ddit4-RNA stability at 0.1 mM measured by ChIP-seq analysis relative to control cells
[2] = target: T1, RNA polymerase II (Mus musculus); assay: Inhibition of RNA polymerase II in mouse B16-F1 migrating cells assessed as fold change in Mat2a-RNA stability at 0.1 mM measured by ChIP-seq analysis relative to control cells
[3] = target: T1, RNA polymerase II (Mus musculus); assay: Inhibition of RNA polymerase II in mouse B16-F1 migrating cells assessed as fold change in Lin7c-RNA stability at 0.1 mM measured by ChIP-seq analysis relative to control cells
[4] = target: T1, RNA polymerase II (Mus musculus); assay: Inhibition of RNA polymerase II in mouse B16-F1 migrating cells assessed as fold change in Tgfbr1-RNA stability at 0.1 mM measured by ChIP-seq analysis relative to control cells
[5] = target: T1, RNA polymerase II (Mus musculus); assay: Inhibition of RNA polymerase II in mouse B16-F1 migrating cells assessed as fold change in Nfya-RNA stability at 0.1 mM measured by ChIP-seq analysis relative to control cells
[6] = target: T1, RNA polymerase II (Mus musculus); assay: Inhibition of RNA polymerase II in mouse B16-F1 migrating cells assessed as fold change in Cntn1-RNA stability at 0.1 mM measured by ChIP-seq analysis relative to control cells
[7] = target: T1, RNA polymerase II (Mus musculus); assay: Inhibition of RNA polymerase II in mouse B16-F1 migrating cells assessed as fold change in Irf2bp2-RNA stability at 0.1 mM measured by ChIP-seq analysis relative to control cells
[8] = target: T1, RNA polymerase II (Mus musculus); assay: Inhibition of RNA polymerase II in mouse B16-F1 migrating cells assessed as fold change in Tax1bp1-RNA stability at 0.1 mM measured by ChIP-seq analysis relative to control cells
[9] = target: T1, RNA polymerase II (Mus musculus); assay: Inhibition of RNA polymerase II in mouse B16-F1 migrating cells assessed as fold change in Plekha7-RNA stability at 0.1 mM measured by ChIP-seq analysis relative to control cells
[10] = target: T1, RNA polymerase II (Mus musculus); assay: Inhibition of RNA polymerase II in mouse B16-F1 migrating cells assessed as fold change in Tmem161b-RNA stability at 0.1 mM measured by ChIP-seq analysis relative to control cells
[11] = target: T1, RNA polymerase II (Mus musculus); assay: Inhibition of RNA polymerase II in mouse B16-F1 migrating cells assessed as fold change in Nid2-RNA stability at 0.1 mM measured by ChIP-seq analysis relative to control cells
[12] = target: T1, RNA polymerase II (Mus musculus); assay: Inhibition of RNA polymerase II in mouse B16-F1 migrating cells assessed as fold change in Bard1-RNA stability at 0.1 mM measured by ChIP-seq analysis relative to control cells
[13] = target: T1, RNA polymerase II (Mus musculus); assay: Inhibition of RNA polymerase II in mouse B16-F1 migrating cells assessed as fold change in Srsf10-RNA stability at 0.1 mM measured by ChIP-seq analysis relative to control cells
[14] = target: T1, RNA polymerase II (Mus musculus); assay: Inhibition of RNA polymerase II in mouse B16-F1 migrating cells assessed as fold change in Trim71-RNA stability at 0.1 mM measured by ChIP-seq analysis relative to control cells
[15] = target: T1, RNA polymerase II (Mus musculus); assay: Inhibition of RNA polymerase II in mouse B16-F1 migrating cells assessed as fold change in Hmgb1-RNA stability at 0.1 mM measured by ChIP-seq analysis relative to control cells
[16] = target: T1, RNA polymerase II (Mus musculus); assay: Inhibition of RNA polymerase II in mouse B16-F1 migrating cells assessed as fold change in Eif3k-RNA stability at 0.1 mM measured by ChIP-seq analysis relative to control cells
[17] = target: T1, RNA polymerase II (Mus musculus); assay: Inhibition of RNA polymerase II in mouse B16-F1 migrating cells assessed as fold change in Snx10-RNA stability at 0.1 mM measured by ChIP-seq analysis relative to control cells
[18] = target: T1, RNA polymerase II (Mus musculus); assay: Inhibition of RNA polymerase II in mouse B16-F1 migrating cells assessed as fold change in Amz2-RNA stability at 0.1 mM measured by ChIP-seq analysis relative to control cells
[19] = target: T1, RNA polymerase II (Mus musculus); assay: Inhibition of RNA polymerase II in mouse B16-F1 migrating cells assessed as fold change in Ift27-RNA stability at 0.1 mM measured by ChIP-seq analysis relative to control cells
[20] = target: Histone-lysine N-methyltransferase EZH2 (Mus musculus) (UniProt Q61188); assay: Inhibition of EZH2 in mouse B16-F1 migrating cells assessed as fold change in H3K27me3-dependent regulated Hbegf-mRNA expression at 3 uM measured by ChIP-seq analysis relative to control cells
[21] = target: Histone-lysine N-methyltransferase EZH2 (Mus musculus) (UniProt Q61188); assay: Inhibition of EZH2 in mouse B16-F1 migrating cells assessed as fold change in H3K27me3-buffered regulated 2310030G06Rik-mRNA expression at 3 uM measured by ChIP-seq analysis relative to control cells
[22] = target: Histone-lysine N-methyltransferase EZH2 (Mus musculus) (UniProt Q61188); assay: Inhibition of EZH2 in mouse B16-F1 migrating cells assessed as fold change in H3K27me3-buffered regulated Kank1-mRNA expression at 3 uM measured by ChIP-seq analysis relative to control cells
[23] = target: Histone-lysine N-methyltransferase EZH2 (Mus musculus) (UniProt Q61188); assay: Inhibition of EZH2 in mouse B16-F1 migrating cells assessed as fold change in H3K27me3-dependent regulated Serpinb9b-mRNA expression at 3 uM measured by ChIP-seq analysis relative to control cells
[24] = target: Histone-lysine N-methyltransferase EZH2 (Mus musculus) (UniProt Q61188); assay: Inhibition of EZH2 in mouse B16-F1 migrating cells assessed as fold change in H3K27me3-buffered regulated Fcho2-mRNA expression at 3 uM measured by ChIP-seq analysis relative to control cells
[25] = target: Histone-lysine N-methyltransferase EZH2 (Mus musculus) (UniProt Q61188); assay: Inhibition of EZH2 in mouse B16-F1 migrating cells assessed as fold change in H3K27me3-buffered regulated Zc3h11a-mRNA expression at 3 uM measured by ChIP-seq analysis relative to control cells
[26] = target: Histone-lysine N-methyltransferase EZH2 (Mus musculus) (UniProt Q61188); assay: Inhibition of EZH2 in mouse B16-F1 migrating cells assessed as fold change in H3K27me3-independent regulated Tagln2-mRNA expression at 3 uM measured by ChIP-seq analysis relative to control cells
[27] = target: Histone-lysine N-methyltransferase EZH2 (Mus musculus) (UniProt Q61188); assay: Inhibition of EZH2 in mouse B16-F1 migrating cells assessed as fold change in H3K27me3-buffered regulated Sema7a-mRNA expression at 3 uM measured by ChIP-seq analysis relative to control cells
[28] = target: Histone-lysine N-methyltransferase EZH2 (Mus musculus) (UniProt Q61188); assay: Inhibition of EZH2 in mouse B16-F1 migrating cells assessed as fold change in H3K27me3-buffered regulated Gsn-mRNA expression at 3 uM measured by ChIP-seq analysis relative to control cells
[29] = target: Histone-lysine N-methyltransferase EZH2 (Mus musculus) (UniProt Q61188); assay: Inhibition of EZH2 in mouse B16-F1 migrating cells assessed as fold change in H3K27me3-buffered regulated Snora31-mRNA expression at 3 uM measured by ChIP-seq analysis relative to control cells
[30] = target: Histone-lysine N-methyltransferase EZH2 (Mus musculus) (UniProt Q61188); assay: Inhibition of EZH2 in mouse B16-F1 migrating cells assessed as fold change in H3K27me3-buffered regulated Nsl1-mRNA expression at 3 uM measured by ChIP-seq analysis relative to control cells

Q: For OC[C@H]1O[C@@H](n2cnc3cc(Cl)c(Cl)cc32)[C@H](O)[C@@H]1O, which log2FC [1] is on record?
A: -0.61

Q: What about the log2FC [2] of the same compound?
A: -0.49

Q: And the log2FC [3]?
A: -0.62

Q: What about the log2FC [4] of the same compound?
A: -0.54

Q: What about the log2FC [5] of the same compound?
A: -0.54

Q: And the log2FC [6]?
A: -0.86

Q: What about the log2FC [7] of the same compound?
A: -0.46

Q: And the log2FC [8]?
A: -0.6

Q: What about the log2FC [9] of the same compound?
A: -0.45

Q: What about the log2FC [10] of the same compound?
A: -0.69

Q: And the log2FC [11]?
A: -0.83

Q: What about the log2FC [12] of the same compound?
A: -0.61

Q: And the log2FC [13]?
A: -0.47

Q: And the log2FC [14]?
A: -0.61

Q: And the log2FC [15]?
A: -0.48

Q: And the log2FC [16]?
A: 0.4

Q: And the log2FC [17]?
A: -0.51

Q: And the log2FC [18]?
A: 0.4

Q: What about the log2FC [19] of the same compound?
A: 0.46

Q: How did the log2FC [20] turn out when CCCc1cc(C)[nH]c(=O)c1CNC(=O)c1cc(-c2ccnc(N3CCN(C)CC3)c2)cc2c1cnn2C(C)C was run?
A: 0.24

Q: And the log2FC [21]?
A: -0.62

Q: And the log2FC [22]?
A: -0.58

Q: And the log2FC [23]?
A: 0.48

Q: What about the log2FC [24] of the same compound?
A: -0.48

Q: What about the log2FC [25] of the same compound?
A: -0.38

Q: What about the log2FC [26] of the same compound?
A: 0.53

Q: And the log2FC [27]?
A: -1.04

Q: And the log2FC [28]?
A: 0.42

Q: And the log2FC [29]?
A: -1.37

Q: What about the log2FC [30] of the same compound?
A: -0.51
